The other results are listed elsewhere or left out.

The assay deals with T1, OsSMF1 (Oryza sativa, UniProt Q6ZLB0 1-436).
T1 sequence: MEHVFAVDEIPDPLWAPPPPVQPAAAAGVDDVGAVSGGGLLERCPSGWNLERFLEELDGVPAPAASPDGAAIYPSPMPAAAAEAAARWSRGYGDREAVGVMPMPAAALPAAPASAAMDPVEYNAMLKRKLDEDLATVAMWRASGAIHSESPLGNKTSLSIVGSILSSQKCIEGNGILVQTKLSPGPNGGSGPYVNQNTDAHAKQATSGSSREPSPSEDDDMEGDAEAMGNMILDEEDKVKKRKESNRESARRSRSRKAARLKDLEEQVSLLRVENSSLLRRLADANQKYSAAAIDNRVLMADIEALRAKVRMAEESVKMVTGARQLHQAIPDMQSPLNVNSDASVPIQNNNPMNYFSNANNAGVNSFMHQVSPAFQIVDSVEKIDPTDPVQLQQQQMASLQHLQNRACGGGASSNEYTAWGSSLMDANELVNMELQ
Put plainly: protein-binding microarray (RPBM); PBS, 2% BSA, 51.3 ng/ul salmon testes DNA, 50 uM zinc acetate, 200 nM TF, 25 C, 1 h; high values mean tight binding. The note with it: protein: recombinant; tags: N-terminal polyhistidine and DsRed monomer fusion (pET32a); chain copies: 2; label: CyDye5-dUTP incorporated in the synthesized complementary strand; 3' TTTTT single-stranded linker to array surface; dsDNA, one strand shown. The method, boiled down: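 The binding signal is fluorescence intensity per feature, in arbitrary units, read on an Axon 4000B scanner. Polyhistidine- and DsRed-tagged transcription factors (N-terminal fusions) from E. coli BL21-CodonPlus were purified on Ni–NTA and applied at 200 nM for 1 h at 25 °C to a double-stranded, BSA-blocked custom Agilent array in buffer with 50 µM zinc acetate.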
Consider “TTCTGTCAATTCCTTTCACCATTTTCAGGCTGAATTTTGTCGGAGTCACCTAGTGCAG”, for which the binding signal was 3410 fluorescence intensity (a.u.). On to “CGCAACCACTCCACGCACTAGCCAAATCAATCGATTCATCCGGAGTCACCTAGTGCAG”, for which the binding signal is 3250 fluorescence intensity (a.u.).

As for “TTACCAGTGGTGATTAATGATTTGTCACTAGGCCTACATGCGGAGTCACCTAGTGCAG”, the binding signal is 4070 fluorescence intensity (a.u.). The same measure for “CACACCCATCATAGTTTACGATGCCGGAGTACGCGGAGCCCGGAGTCACCTAGTGCAG”: 3590 fluorescence intensity (a.u.); for “TTTGCCTACTGCTCTCTGTGTCAGATATCCACACGTGCCCCGGAGTCACCTAGTGCAG”: 4580 fluorescence intensity (a.u.); for “GCGGGTTGAGGGCGCGCGGGAGGAGCGACGTCAGGGTGCTCGGAGTCACCTAGTGCAG”: 3990 fluorescence intensity (a.u.). For the sequence “CCCCTCGTCTACCCACCCACTGCCACGTGGGACCAGCCACCGGAGTCACCTAGTGCAG”, the binding signal is 18400 fluorescence intensity (a.u.).

On to “GTCTCCCTTGATCCAGTAAACAGACGACACGCGGACGATCCGGAGTCACCTAGTGCAG”, for which the binding signal is 3260 fluorescence intensity (a.u.). The figure for “AGGGGTGCGTAGAGAACACGCGTCCGTACGTGGTGGCGTACGGAGTCACCTAGTGCAG” is 4270 fluorescence intensity (a.u.). Turning to “AAGATAAGTTCGCCGCCGCCTCGTCGGCACGCAACAAGACCGGAGTCACCTAGTGCAG”, the binding signal was 3390 fluorescence intensity (a.u.).

Consider “TGTTTATAGCGGGCTTATAGTCTCTCATTGTACTTGCTCTCGGAGTCACCTAGTGCAG”, for which the binding signal is 3300 fluorescence intensity (a.u.). The figure for “GGGTTCGATTCCCCGCACCTCCAATATAAAACGTTTTCTTCGGAGTCACCTAGTGCAG” is 3420 fluorescence intensity (a.u.); for “CATTAGCACGCTTTTCAAAGTACAAAATGACGTGTTTTGTCGGAGTCACCTAGTGCAG” it is 9620 fluorescence intensity (a.u.). The figure for “CAGCGCTATCTCCCTCCTGCTGCATTAACTCTTCAGTAATCGGAGTCACCTAGTGCAG” is 3340 fluorescence intensity (a.u.); for “GATTGTTGGCGGTTCTTGATTGTCATCATCATGTTGTCAGCGGAGTCACCTAGTGCAG” it is 5680 fluorescence intensity (a.u.); for “AGTTTTGCAGAGTAGCAGCGTGATGCAGAGGTTTCTACCACGGAGTCACCTAGTGCAG” it is 3310 fluorescence intensity (a.u.). The figure for “TCCGCTCCTCCGCTGCTTGGTCACCGACCCCTCGGAACGCCGGAGTCACCTAGTGCAG” is 5280 fluorescence intensity (a.u.); for “CCCACCTGTAAGTGACGTTACGCGTGTGGTGATTGGCTGGCGGAGTCACCTAGTGCAG” it is 4410 fluorescence intensity (a.u.); for “TTCTGCGTGTGAGTGGGTTTTCTTCCTAGTGGTTTAAATACGGAGTCACCTAGTGCAG” it is 3970 fluorescence intensity (a.u.).

For “GCACGATCTATCACAAAACTACAGATTTAAGAACTTATTTCGGAGTCACCTAGTGCAG”, the binding signal is 3520 fluorescence intensity (a.u.). The figure for “GGGTTGGATATACGGGTCGGTGACGGAGGACGTGGTCACCCGGAGTCACCTAGTGCAG” is 6140 fluorescence intensity (a.u.); for “CCGTTGAATGTGCCAGACAAACTGAGTGTAATTTAATATTCGGAGTCACCTAGTGCAG” it is 65100 fluorescence intensity (a.u.); for “CTCAGCCTCCCCACCCACGCGTCTCACCGGAGCTCCGCCGCGGAGTCACCTAGTGCAG” it is 4390 fluorescence intensity (a.u.). The figure for “GCCTGGTAATACGTACTACGCGGGAACCAAATCTTACGCACGGAGTCACCTAGTGCAG” is 3310 fluorescence intensity (a.u.).

As to “ACAGCGACCCGATCACTCTCTCACTGTCTCGTTCACGTAGCGGAGTCACCTAGTGCAG”, the binding signal was 4210 fluorescence intensity (a.u.). The figure for “AGGAGAAACCGATGGCTCTTCCGCGTGTCACGCGTGACGCCGGAGTCACCTAGTGCAG” is 4250 fluorescence intensity (a.u.); for “TCCCGCTCGCCACCACCTCCTCCTCGAACCCCTCCGGCAACGGAGTCACCTAGTGCAG” it is 3230 fluorescence intensity (a.u.); for “AACGCTACCTAGATGCTTCGCTGCTATGAGTCATATATAGCGGAGTCACCTAGTGCAG” it is 5200 fluorescence intensity (a.u.). In the case of “ACCTCTTTGTGAGGTGTCCTCTGACGTGTAGTCCAACATACGGAGTCACCTAGTGCAG”, the binding signal is 7630 fluorescence intensity (a.u.). The same measure for “CATGCACTTGTGTGCCACGTGTATGCGCTGAGGTAAAGTTCGGAGTCACCTAGTGCAG”: 21200 fluorescence intensity (a.u.). The same measure for “CAACATGCAACCATACCACATCATCACCCACTAGCAATAACGGAGTCACCTAGTGCAG”: 4890 fluorescence intensity (a.u.); for “TATGGTGATCCTAGCGATGAAACCGCCTAGCCCCGTTAGGCGGAGTCACCTAGTGCAG”: 64600 fluorescence intensity (a.u.). The same measure for “AATTAATGAAGTGGAGTGCCTTGGCAATCTGTGAGGTACACGGAGTCACCTAGTGCAG”: 3380 fluorescence intensity (a.u.); for “CACAACCTCCCGTCTCAGTGACGTCGCGCCCGTAGTCCCGCGGAGTCACCTAGTGCAG”: 4670 fluorescence intensity (a.u.). On to “CAACCCGGCTGGAACCAGTCATCAGTCCATCACGATATACCGGAGTCACCTAGTGCAG”, for which the binding signal was 3260 fluorescence intensity (a.u.). The same measure for “TCACACATATCACGCATATCATACGTCACTGTTGGAGATTCGGAGTCACCTAGTGCAG”: 8360 fluorescence intensity (a.u.); for “CTTGTTCGTAAAAGTTTTATAATTTTACACGTATATCCTTCGGAGTCACCTAGTGCAG”: 5220 fluorescence intensity (a.u.). The figure for “TGAAATTTATTAATCAATGAACTAAATTACTCCCTCGAGTCGGAGTCACCTAGTGCAG” is 20300 fluorescence intensity (a.u.); for “ATGCTATCTGAGGACATTCCAATACAGCTCTTCAACTGCACGGAGTCACCTAGTGCAG” it is 28100 fluorescence intensity (a.u.).

Regarding “GAGGAAGGAGGAACAAGGAGGAACTCTACACGTCATGGTGCGGAGTCACCTAGTGCAG”, the binding signal is 8720 fluorescence intensity (a.u.).

As for “CGTGCAAGATGTGCGCCTTATATCATCAGCTTGCTTTCCTCGGAGTCACCTAGTGCAG”, the binding signal is 3810 fluorescence intensity (a.u.). The same measure for “GTGGGCCCCACATGTCAGTGGGTCCCACCCGTACTTTTGGCGGAGTCACCTAGTGCAG”: 3780 fluorescence intensity (a.u.).

The values are drawn from paper PMC7819943, “Rice protein-binding microarrays: a tool to detect cis-acting elements near promoter regions in rice”.
